Results from paper PMC12431657, “Discovery and mechanistic insights of dibenzoylmethane as a broad spectrum inhibitor of coronavirus” (PLOS Pathogens, 2025).
Structures can show the parent of a compound that is named as a salt. Where two headings read alike, the source gives them in different places. About 60 (2%) of roughly 3,300 compounds showed an effect of 50% or more. This is one part of the list.

Test system: HCoV-OC43
Parameters: species or system RD; HTS, protection from HCoV-OC43 induced cell death, luminescent cell viability (CellCounting-Lite 2.0), inhibition rate
Settings: 24 h post infection, 1 h compound pre-incubation, 10 µM, inhibitor

Row | SMILES | OC43 Inhibition rate | OC43 Inhibition rate (OC43 Inhibition rate, 24 h)
1 | OC[C@H]1NC[C@@H](O)[C@@H](O)[C@@H]1O [1-Deoxymannojirimycin (hydrochloride)] | 3.3% | –
2 | NCc1ccc(O)cc1 [4-Hydroxybenzylamine] | 0.1% | –
3 | CCCCCCCCCCCCC(=O)O [Tridecanoic acid] | -0.4% | –
4 | CC[C@@H]1CN2CC[C@@]3(C(=O)Nc4ccccc43)[C@@H]2C[C@@H]1/C(=C\OC)C(=O)OC [Corynoxine] | -0.4% | –
5 | O=C1CC(c2ccc(O)cc2)Oc2ccccc21 (stereo not drawn) [4'-Hydroxyflavanone] | 6.4% | –
6 | COc1cc(/C=C/c2ccc(O)c(O)c2)cc(OC)c1 [3'-Hydroxypterostilbene] | 0.8% | –
7 | CC(C)=CCc1cc(-c2coc3cc(O)cc(O)c3c2=O)cc(O)c1O [Glycyrrhisoflavone] | 2.1% | –
8 | C=C(CCC=C(C)C)[C@H]1CC[C@]2(C)[C@@H]1[C@H](O)C[C@@H]1[C@@]3(C)C[C@@H](O)[C@H](O[C@@H]4O[C@H](CO)[C@@H](O)[C@H](O)[C@H]4O[C@@H]4O[C@H](CO)[C@@H](O)[C@H](O)[C@H]4O)C(C)(C)[C@@H]3CC[C@]12C [Damulin B] | 7.3% | –
9 | Nc1[nH]cnc2ncnc1-2 [Adenine] | – | 1.2%
10 | COc1ccc2cc1Oc1ccc(cc1)C[C@H]1c3cc(c(OC)cc3CCN1C)Oc1c(OC)c(OC)cc3c1[C@H](C2)N(C)CC3 [tetrandrine] | 79.7% | –
11 | Sc1nc2ccccc2s1 [2-Mercaptobenzothiazole] | 0.3% | –
12 | O=C(O)CNC(=O)c1cccnc1 [Nicotinuric acid] | -0.3% | –
13 | CCCCCC/C=C/CCCCCCCCCC(=O)O [trans-Vaccenic acid] | -0.2% | –
14 | COc1cc(/C=C/c2ccccc2)oc(=O)c1 [Desmethoxyyangonin] | 3.4% | –
15 | Cc1coc2c1C(=O)C(=O)c1c-2ccc2c(C)cccc12 [Tanshinone I] | 2.5% | –
16 | C[C@@]12C[C@@]3(O)O[C@@H](O1)[C@]1(COC(=O)c4ccccc4)[C@H]3C[C@@]12O[C@@H]1O[C@H](CO)[C@@H](O)[C@H](O)[C@H]1O [Paeoniflorin] | -2.8% | –
17 | C[C@H](CC[C@@H](O)C(C)(C)O)[C@H]1CC[C@@]2(C)[C@@H]3CC=C4[C@@H](CC[C@H](O[C@@H]5O[C@H](CO)[C@@H](O)[C@H](O)[C@H]5O)C4(C)C)[C@]3(C)[C@H](O)C[C@]12C [Mogroside I E1] | -1.8% | –
18 | C[C@]12CC[C@@H]3c4ccc(OS(=O)(=O)O)cc4CC[C@H]3[C@@H]1CCC2=O [Estrone sulfate (sodium)] | – | 0.2%
19 | COc1ccc(-c2coc3cc(O[C@@H]4O[C@H](CO[C@@H]5OC[C@@H](O)[C@H](O)[C@H]5O)[C@@H](O)[C@H](O)[C@H]4O)c(OC)c(O)c3c2=O)cc1 [Kakkalide] | -0.1% | –
20 | CC/C=C\C/C=C\C/C=C\C/C=C\C/C=C\CCCCCC(=O)O [Docosapentaenoic acid (22n-3)] | 1.3% | –

Row | SMILES | OC43 Inhibition rate | OC43 Inhibition rate (OC43 Inhibition rate, 24 h)
21 | COc1ccc2[nH]cc(CCO)c2c1 [5-Methoxytryptophol] | -1.4% | –
22 | C[C@H](CC[C@@H](O[C@@H]1O[C@H](CO[C@@H]2O[C@H](CO)[C@@H](O)[C@H](O)[C@H]2O)[C@@H](O)[C@H](O)[C@H]1O)C(C)(C)O)[C@H]1CC[C@@]2(C)[C@@H]3CC=C4[C@@H](CC[C@H](O[C@@H]5O[C@H](CO)[C@@H](O)[C@H](O)[C@H]5O)C4(C)C)[C@]3(C)[C@H](O)C[C@]12C [Mogroside III] | -0.2% | –
23 | O=C(O)CC(O)(CC(=O)OCc1ccc(O[C@@H]2O[C@H](CO)[C@@H](O)[C@H](O)[C@H]2O)cc1)C(=O)O (stereo partly drawn) [Parishin E] | -0.4% | –
24 | CC(C)(c1ccc(O)cc1)c1ccc(O)cc1 [Bisphenol A] | 3.4% | –
25 | CCCCCCCCCCCCCCCCCCCO [1-Nonadecanol] | -1.1% | –
26 | C[N+](C)(C)[O-] [Trimethylamine N-oxide (dihydrate)] | – | -1.8%
27 | Nc1nc(=O)c2c([nH]1)NC[C@@H](CNc1ccc(C(=O)N[C@@H](CCC(=O)O)C(=O)O)cc1)N2C=O [Folinic acid] | 0.1% | –
28 | CN[C@H]1C[C@@H](N)[C@H](O)[C@@H](O[C@@H]2O[C@H](CO)[C@H](O)[C@@H]3OC4(O[C@H]23)O[C@H]([C@@H](N)CO)[C@H](O)[C@H](O)[C@H]4O)[C@@H]1O (stereo partly drawn) [Hygromycin B] | -0.1% | –
29 | O=C(O)C[C@@H]1C(=O)O[C@H]2[C@H](OC(=O)c3cc(O)c(O)c(O)c3)[C@@H](OC(=O)c3cc(O)c(O)c4c3[C@H]1[C@@H](O)C(=O)O4)[C@H](OC(=O)c1cc(O)c(O)c(O)c1)O[C@@H]2COC(=O)c1cc(O)c(O)c(O)c1 [Chebulinic acid] | -0.1% | –
30 | C=C1[C@H]2CC[C@@H]3[C@H]2C(C)(C)CCC[C@]13C [(+)-Longifolene] | -0.1% | –
31 | CC(=O)c1ccc(O)c(C)c1 [4'-Hydroxy-3'-methylacetophenone] | -1.5% | –
32 | OC[C@H]1NCC[C@@H](O)[C@@H]1O [Fagomine] | -2.4% | –
33 | O=c1[nH]c(=O)c2nccnc2[nH]1 [Pteridine-2,4(1H,3H)-dione] | 1.8% | –
34 | CC(=O)c1c(O)c(C)c(O)c(Cc2c(O)c3c(c(C(=O)/C=C/c4ccccc4)c2O)OC(C)(C)C=C3)c1O [Rottlerin] | -5% | –
35 | CCCCC[C@@H](O)[C@H]1C(=O)O[C@H](C)[C@@H](O)/C=C/C=C/C=C/C=C/C=C(\C)[C@@H](O)[C@H](O)[C@H](O)C[C@H](O)C[C@H](O)C[C@H](O)C[C@H](O)C[C@@H]1O [Lagosin] | 0.1% | –
36 | CCCCCCCCC=O [Nonanal] | 0.7% | –
37 | O[C@H]1[C@H]2c3cc4c(cc3CN3CCC(=C[C@@H]1O)[C@H]23)OCO4 [Lycorine] | 60.9% | –
38 | COc1cc(/C=C/C(=O)OC2[C@H](O)CC(O)(C(=O)O)C[C@H]2O)ccc1O (stereo partly drawn) [4-Feruloylquinic acid] | 10.6% | –
39 | C[C@@H]1O[C@@H](O[C@H]2[C@H](Oc3cc(O)c(C(=O)CCc4ccc(O)cc4)c(O)c3)O[C@H](CO)[C@@H](O)[C@@H]2O)[C@H](O)[C@H](O)[C@H]1O [Naringin Dihydrochalcone] | -0.1% | –
40 | Cc1cc(O)cc2c1O[C@](C)(CCC[C@H](C)CCC[C@H](C)CCCC(C)C)CC2 [Delta-Tocopherol] | 9.4% | –

Row | SMILES | OC43 Inhibition rate | OC43 Inhibition rate (OC43 Inhibition rate, 24 h)
41 | C[C@@H]1CC(=O)c2c(ccc3c2C(=O)c2cccc(O)c2C3=O)C1 [Ochromycinone] | 2.1% | –
42 | CC(=O)NCCCCNCCCN [N8-Acetylspermidine dihydrochloride] | -1% | –
43 | C=C1C(=O)O[C@@H]2C[C@@]3(C)CCC[C@H](C)C3=C[C@H]12 [Alantolactone] | -14.1% | –
44 | O=CN1C[C@@H]2C[C@H](C1)c1cccc(=O)n1C2 [N-Formylcytisine] | -0.5% | –
45 | c1c2c(cc3c1OCO3)-c1cc3ccc4c(c3c[n+]1CC2)OCO4 [Coptisine (Sulfate)] | – | -0.1%
46 | NCc1c[nH]c2ccccc12 [Indole-3-methanamine] | 7% | –
47 | Oc1cc(O)cc(/C=C/c2ccc(O)cc2O)c1 [Oxyresveratrol] | 0.3% | –
48 | O=c1oc2cc(O)ccc2c2oc3cc(O)ccc3c12 [Coumestrol] | 0.2% | –
49 | CN[C@H](CC(C)C)C(=O)N[C@H]1C(=O)N[C@@H](CC(N)=O)C(=O)N[C@H]2C(=O)N[C@H]3C(=O)N[C@H](C(=O)N[C@H](C(=O)O)c4cc(O)cc(O)c4-c4cc3ccc4O)[C@H](O)c3ccc(c(Cl)c3)Oc3cc2cc(c3O[C@@H]2O[C@H](CO)[C@@H](O)[C@H](O)[C@H]2O[C@H]2C[C@](C)(N)[C@H](O)[C@H](C)O2)Oc2ccc(cc2Cl)[C@H]1O [Vancomycin] | – | 0.1%
50 | O=c1c(O)c(-c2ccc(O)c(O)c2)oc2cc(O)c(O)c(O)c12 [Quercetagetin] | 2% | –
51 | COc1ccc(C(=O)/C=C/c2ccccc2)cc1 [4'-Methoxychalcone] | -2.1% | –
52 | COC1=C2C[C@@H](C)C[C@H](OC)[C@H](O)[C@@H](C)/C=C(\C)[C@H](OC(N)=O)[C@@H](OC)/C=C\C=C(/C)C(=O)NC(=CC1=O)C2=O [Geldanamycin] | -1.7% | –
53 | C[C@@H]1CC[C@@H]2O[C@@]23C(=O)C(=O)[C@@H]2[C@@H](C2(C)C)[C@@]13C [Kanshone C] | 5.9% | –
54 | Nc1[nH]cnc2ncnc1-2 [Adenine monohydrochloride hemihydrate] | – | 0%
55 | NCCc1c[nH]cn1 [Histamine (dihydrochloride)] | – | 0%
56 | C[N+]1(C)CCC[C@H]1C(=O)[O-] [Stachydrine] | – | 2.9%
57 | COc1cc2oc(-c3ccc(O)cc3)cc(=O)c2c(O)c1[C@@H]1O[C@H](CO)[C@@H](O)[C@H](O)[C@H]1O[C@@H]1O[C@H](CO)[C@@H](O)[C@H](O)[C@H]1O [Spinosin] | -0.4% | –
58 | O[C@H]1[C@H](O)[C@H](O)[C@@H](O)[C@H](O)[C@H]1O [D-chiro-Inositol] | -0.1% | –
59 | CC1(C)C=CC(=O)C1 [4,4-Dimethyl-2-cyclopenten-1-one] | -0.9% | –
60 | CN1[C@@H](CC(=O)c2ccccc2)CCC[C@H]1C[C@H](O)c1ccccc1 [Lobeline (hydrochloride)] | 40.9% | –

Single records, from the list above.
CN[C@H](CC(C)C)C(=O)N[C@H]1C(=O)N[C@@H](CC(N)=O)C(=O)N[C@H]2C(=O)N[C@H]3C(=O)N[C@H](C(=O)N[C@H](C(=O)O)c4cc(O)cc(O)c4-c4cc3ccc4O)[C@H](O)c3ccc(c(Cl)c3)Oc3cc2cc(c3O[C@@H]2O[C@H](CO)[C@@H](O)[C@H](O)[C@H]2O[C@H]2C[C@](C)(N)[C@H](O)[C@H](C)O2)Oc2ccc(cc2Cl)[C@H]1O [Vancomycin] is listed with OC43 Inhibition rate (OC43 Inhibition rate, 24 h): 0.1%
CC1(C)C=CC(=O)C1 [4,4-Dimethyl-2-cyclopenten-1-one] is listed with OC43 Inhibition rate: -0.9%
CC(=O)NCCCCNCCCN [N8-Acetylspermidine dihydrochloride] is listed with OC43 Inhibition rate: -1%
